According to patent US20220144895A1, “DE NOVO DESIGN OF TUNABLE PH-DRIVEN CONFORMATIONAL SWITCHES” (University of Washington, priority 2019, published 2022):
Some entries repeat one wording, which the source may state once for all of them.

Test: Native mass spectrometry of pH-induced changes in oligomeric state
Format: physicochemical
Details: native MS at indicated pH
Method: Samples were buffer exchanged twice into 200 mM ammonium acetate (NH4Ac; MilliporeSigma) using Micro Bio-Spin P-6 columns (Bio-Rad). Protein concentrations were determined by UV absorbance using a Nanodrop 2000c spectrophotometer (Thermo Fisher Scientific) and diluted to make up a 10-fold stock solution (50 μM and 16.7 μM monomer and trimer concentration, respectively). 1 μL of this solution was mixed with 9 μL 200 mM NH4Ac/50 mM triethylammonium acetate (TEAA; MilliporeSigma), adjusted with acetic acid (Fisher Scientific) to obtain the desired final pH and incubated on ice for 30 min. […] 5 μL samples were filled into an in-house pulled glass capillary and ionized by nESI at a monomer or a trimer concentration of 5 μM or 1.67 μM respectively. All pH titration data were acquired on an in-house modified SYNAPT® G2 HDMS (Waters Corporation) with a surface-induced dissociation (SID) device incorporated between a truncated trap traveling wave ion guide and the ion mobility cell (39). The following instrument parameters were used spray voltage 0.9-1.3 kV; sampling cone, 20 V; extraction cone, 2 V; source temperature, room temperature; trap gas flow, 4 mL/min; trap bins, 45V. The data were processed with MassLynx™ v4.1 and DriftScope™ v2.1. For relative quantification, charge state series were extracted from DriftScope™, and smoothed spectra (mean; window 20; number of smooths 20) were integrated.
Python scripts were written to generate theoretical models according Equation 1, and curve-fitting to native mass spectrometry data (FIGS. 1, 3, 5) according to Equation 2 by nonlinear least squares using curve fit from scipy.optimize. The free energy estimates for individual n, m, and l layers used in Equation 1 modeling were estimated by solving linear equations as follows: values for the free energy of folding for designs pRO-2 and variants were estimated from GdmCl denaturation experiments (FIG. 11); each of these designs have different numbers of n, m, and l layers, thus series of linear equations relating the number of each layer type to the total free energies of folding were solved to estimate dG values of the individual layers of each type.

B1: pRO-4: designed heterodimer, SEQ ID NO: 27-28, chains 81 and 82 (protein)
chain 1: MDEEDHLKKLKTHLEKLERHLKLLEDHAKKLEDILKERPEDSAVKESIDELRRSIELVRESIEIFRQSVEEEEGSSHHHHHHSSGENLYFQGDVKELTKILDTLTKILETATKVIKDATKLLEEHRKSDKPDPRLIETHKKLVEEHETLVRQHKELAEEHLKRTR
chain 2: MDEEDHLKKLKTHLEKLERHLKLLEDHAKKLEDILKERPEDSAVKESIDELRRSIELVRESIEIFRQSVEEEEGDVKELTKILDTLTKILETATKVIKDATKLLEEHRKSDKPDPRLIETHKKLVEEHETLVRQHKELAEEHLKRTR
chain 3: MDEEDHLKKLKTHLEKLERHLKLLEDHAKKLEDILKERPEDSAVKESIDELRRSIELVRESIEIFRQSVEEEE
chain 4: GSSHHHHHHSSGENLYFQGDVKELTKILDTLTKILETATKVIKDATKLLEEHRKSDKPDPRLIETHKKLVEEHETLVRQHKELAEEHLKRTR
modifications: Synthetic polpypeptide; (1)..(18) Optional residues
  dissociation pathway / intermediates during pH-induced disassembly: predominantly directly dissociate into monomer at low pH

B2: pRO-3: designed homotrimer, SEQ ID NO: 23-24 (protein)
chain 1: MGSHHHHHHGSGSENLYFQGSEALYELEKALRELKKATAALERATAELKKNPSEDALVEHNRLIAAHNKIIAEVLRIIAKVLK
chain 2: GSEALYELEKALRELKKATAALERATAELKKNPSEDALVEHNRLIAAHNKIIAEVLRIIAKVLK
  dissociation pathway / intermediates during pH-induced disassembly: disassemble via tetramer as intermediate

B3: pRO-3.1: pRO-3 variant, SEQ ID NO: 25-26 (protein)
chain 1: MGSHHHHHHGSGSENLYFQGSEALYELEKATRELKKATDELERATEELEKNPSEDALVEHNRLIAEHNKIIAEHNRIIAKVLK
chain 2: GSEALYELEKATRELKKATDELERATEELEKNPSEDALVEHNRLIAEHNKIIAEHNRIIAKVLK
  dissociation pathway / intermediates during pH-induced disassembly: disassemble via tetramer as intermediate

B4: pRO-2 A54M: pRO-2 mutant, SEQ ID NO: 19-20 (protein)
chain 1: MGSHHHHHHGSGSENLYFQGSEYEIRKALEELKAATAELKRATASLRAITEELKKNPSEDALVEHNRAIVEHNMIIVEHNRIIAAVLELIVRAIK
chain 2: GSEYEIRKALEELKAATAELKRATASLRAITEELKKNPSEDALVEHNRAIVEHNMIIVEHNRIIAAVLELIVRAIK
  dissociation pathway / intermediates during pH-induced disassembly: disassemble via tetramer as intermediate

B5: pRO-2: designed pH-responsive homotrimer, SEQ ID NO: 1-2 (protein)
chain 1: MGSHHHHHHGSGSENLYFQGSEYEIRKALEELKAATAELKRATASLRAITEELKKNPSEDALVEHNRAIVEHNAIIVEHNRIIAAVLELIVRAIK
chain 2: SEYEIRKALEELKAATAELKRATASLRAITEELKKNPSEDALVEHNRAIVEHNAIIVEHNRIIAAVLELIVRAIK
  dissociation pathway / intermediates during pH-induced disassembly: disassemble via tetramer as intermediate

B6: pRO-2.3: pRO-2 variant, SEQ ID NO: 7-8 (protein)
chain 1: MGSHHHHHHGSGSENLYFQGSEYEIRKALEELKASTAELKRATASLRAITEELKKNPSEDALVEHNRAIVEHNAIIVENNRIIAAVLELIVRAIK
chain 2: SEYEIRKALEELKASTAELKRATASLRAITEELKKNPSEDALVEHNRAIVEHNAIIVENNRIIAAVLELIVRAIK
  dissociation pathway / intermediates during pH-induced disassembly: forms multiple higher-order oligomers besides tetramer at low pH prior to dissociation into monomer

B7: pRO-2.1: pRO-2 variant, SEQ ID NO: 3-4 (protein)
chain 1: MGSHHHHHHGSGSENLYFQGSEYEIRKALEELKAALAELKRATASLRAITEELKKNPSEDALVEHNRAIVEHNAIIVEVLRIIAAVLELIVRAIK
chain 2: SEYEIRKALEELKAALAELKRATASLRAITEELKKNPSEDALVEHNRAIVEHNAIIVEVLRIIAAVLELIVRAIK
  dissociation pathway / intermediates during pH-induced disassembly: disassemble via tetramer as intermediate

B8: pRO-2.5: pRO-2 variant, SEQ ID NO: 11-12 (protein)
chain 1: MGSHHHHHHGSGSENLYFQGSEYEIRKALEELKASTAELKRATASLRASTEELKKNPSEDALVENNRLIVEHNAIIVENNRIIAAVLELIVRAIK
chain 2: SEYEIRKALEELKASTAELKRATASLRASTEELKKNPSEDALVENNRLIVEHNAIIVENNRIIAAVLELIVRAIK
  dissociation pathway / intermediates during pH-induced disassembly: directly dissociate into monomer at low pH

B9: pRO-2 I56V: pRO-2 mutant, SEQ ID NO: 17-18 (protein)
chain 1: MGSHHHHHHGSGSENLYFQGSEYEIRKALEELKAATAELKRATASLRAITEELKKNPSEDALVEHNRAIVEHNAIVVEHNRIIAAVLELIVRAIK
chain 2: GSEYEIRKALEELKAATAELKRATASLRAITEELKKNPSEDALVEHNRAIVEHNAIVVEHNRIIAAVLELIVRAIK
  dissociation pathway / intermediates during pH-induced disassembly: disassemble via tetramer as intermediate

B10: pRO-2.4: pRO-2 variant, SEQ ID NO: 9-10 (protein)
chain 1: MGSHHHHHHGSGSENLYFQGSEYEIRKALEELKAATAELKRATASLRASTEELKKNPSEDALVENNRLIVEHNAIIVEHNRIIAAVLELIVRAIK
chain 2: SEYEIRKALEELKAATAELKRATASLRASTEELKKNPSEDALVENNRLIVEHNAIIVEHNRIIAAVLELIVRAIK
  dissociation pathway / intermediates during pH-induced disassembly: disassemble via tetramer as intermediate

B11: pRO-5: designed heterodimer, SEQ ID NO: 31-32, 85-86 (protein)
chain 1: MTKEDILERQRKIIERAQEIHRRQQEILKEQEKIIRKPGSSEEAMKRSLKLIEESLRLLKELLELSEESAQLLYEQRGSSHHHHHHSSGENLYFQGTEKRLLEEAERAHREQKEIIKKAQELHKELTKIHQQSGSSEEAKKRALKISQEIRELSKRSLELLREILYLSQEQK
chain 2: MTKEDILERQRKIIERAQEIHRRQQEILKEQEKIIRKPGSSEEAMKRSLKLIEESLRLLKELLELSEESAQLLYEQRGTEKRLLEEAERAHREQKEIIKKAQELHKELTKIHQQSGSSEEAKKRALKISQEIRELSKRSLELLREILYLSQEQK
chain 3: MTKEDILERQRKIIERAQEIHRRQQEILKEQEKIIRKPGSSEEAMKRSLKLIEESLRLLKELLELSEESAQLLYEQR
chain 4: GSSHHHHHHSSGENLYFQGTEKRLLEEAERAHREQKEIIKKAQELHKELTKIHQQSGSSEEAKKRALKISQEIRELSKRSLELLREILYLSQEQK
modifications: Synthetic polpypeptide; (1)..(18) Optional residues
  dissociation pathway / intermediates during pH-induced disassembly: predominantly directly dissociate into monomer at low pH
